Laboratory results published in US20200206313A1, “POLYPEPTIDE NANOTUBES LINKED BY DISULFIDE BONDS FOR TARGETED DELIVERY OF CYTOTOXIC THERAPIES” (MUSC FOUNDATION FOR RESEARCH DEVELOPMENT, priority 2018, published 2020).

Assays:
[1] = tested on: MDAMB231; assay: Cytotoxicity, MTT assay, MDAMB231; assay type: cell-based
Experimental: (§1) HeLa (Cervical cancer cell line), MDA-MB-231 (Breast cancer cell line) and HaCaT (Human keratinocytes) cells were maintained in growth medium consisting of Dulbecco's Modified Eagle's Medium (DMEM, Gibco, India) with high glucose, supplemented with 10% FBS and 1% penicillin-streptomycin. The cells were grown in […] flasks (BD Falcon) and passaged every three days. All culture reagents were purchased from Thermofisher scientific. The serum free media was used to eliminate any confounding effects from serum adsorption to the nanotubes. Within the time-period (5 h) of the experiment, no adverse cellular responses were observed from serum deprivation or serum shock after a transfer from serum containing growth media.
(§2) Cytotoxicity of nanotube, DOX loaded nanotube and free DOX were assessed in HeLa and MDAMB231 using the MTT assay. About 5×10^3 cells were seeded per well of a 96-well plate and allowed to attach during incubation for 24 h in a humidified incubator at 37° C. Cells were treated with different concentrations of nanotubes, free DOX or DOX loaded nanotubes ranging from 0.2 to 6.4 μg/ml. Four hours before termination of the assay, MTT was added. Mitochondria of viable cells […] MTT to produce purple Formazan crystals. […] The absorbance of each well was measured at 570 nm using a microplate reader (Synergy HT, BioTek Instrument Inc., Winooski Vt.). […]

[2] = tested on: HeLa; assay: Cytotoxicity, MTT assay, HeLa; assay type: cell-based
Experimental: as §1, §2

COc1cccc2c1C(=O)c1c(O)c3c(c(O)c1C2=O)C[C@@](O)(C(=O)CO)C[C@@H]3O[C@H]1C[C@H](N)[C@H](O)[C@H](C)O1.Cl [free DOX, Doxorubicin hydrochloride]
IC50 [1]: 2.3 µg/mL | IC50 [2]: 0.45 µg/mL
